Tests used:
[1] = test system: OvCar3 ovarian cancer cell line; assay: Individual effects (IC50), OvCar3; type: cell-based; details: Homo sapiens, OVCAR-3; OvCar3, single drug
From the text: This example compares the individual effects of HDACis and agonsist of TLR7/8 of the initially tested cell line SKOV3 (see Example 3) with an additional cell line (OvCar 3, see FIG. 17) and primary ovarian cancer cell lines from heavily pretreated patients (OvCa2810, see FIG. 19; and OvCa 236, see FIG. 21).

[2] = test system: SKOV3 ovarian cancer cell line; assay: MTT proliferation assay, single drugs, SKOV3; type: cell-based; details: Homo sapiens, SK-OV-3; SKOV3, single drug

Compound: O=C(CCCCCCC(=O)Nc1ccccc1)NO [Vorinostat, vorinostat]
- IC50 [1]: 3000 nM
- IC50 [2]: 1100 nM
